Assay results reported in paper PMC10505183.
No constants are given. Whether binding was seen depends on the method and setting. Binding seen in cells or lysates may run through a third protein. Some entries that bind do so weakly or less than the wild type.

How the values were obtained:
[1] = biological target: T1, STR (stunted arbuscule, half-size ABCG transporter) (Medicago truncatula) (UniProt D3GE74); test: split reporter; BiFC (nYFP/cYFP) in agroinfiltrated N. benthamiana leaves, confocal imaging two days post-inoculation
T1 sequence: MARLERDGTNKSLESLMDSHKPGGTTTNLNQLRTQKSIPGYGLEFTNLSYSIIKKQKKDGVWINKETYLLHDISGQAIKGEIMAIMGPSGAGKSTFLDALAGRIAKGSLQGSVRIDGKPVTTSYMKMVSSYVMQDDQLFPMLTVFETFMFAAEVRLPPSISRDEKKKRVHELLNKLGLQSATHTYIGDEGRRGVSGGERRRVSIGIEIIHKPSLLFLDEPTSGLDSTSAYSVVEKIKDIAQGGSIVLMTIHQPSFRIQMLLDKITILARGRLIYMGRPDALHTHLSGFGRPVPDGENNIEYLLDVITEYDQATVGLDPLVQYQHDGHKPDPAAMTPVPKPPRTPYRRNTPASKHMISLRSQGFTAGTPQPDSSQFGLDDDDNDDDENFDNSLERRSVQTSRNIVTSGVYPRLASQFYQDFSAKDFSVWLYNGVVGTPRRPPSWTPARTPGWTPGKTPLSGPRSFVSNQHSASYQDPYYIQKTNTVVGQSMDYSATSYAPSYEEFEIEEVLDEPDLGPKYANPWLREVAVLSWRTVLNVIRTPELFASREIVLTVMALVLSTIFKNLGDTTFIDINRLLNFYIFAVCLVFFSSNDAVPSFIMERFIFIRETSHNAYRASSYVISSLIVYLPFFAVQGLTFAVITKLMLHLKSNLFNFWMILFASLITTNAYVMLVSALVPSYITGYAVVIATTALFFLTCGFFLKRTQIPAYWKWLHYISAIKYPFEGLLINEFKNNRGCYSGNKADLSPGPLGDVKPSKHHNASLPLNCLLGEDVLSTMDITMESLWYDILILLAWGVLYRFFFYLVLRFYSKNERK

[2] = biological target: STR2 (half-size ABCG transporter) (Medicago truncatula) (UniProt A9YWR6); test: as above

| Binder | binding [1] | binding [2] |
| --- | --- | --- |
| STR2 (half-size ABCG transporter) (protein, UniProt A9YWR6 1-727) MKTQGLELETVIDIKHKPVSFTGGLEFESLTYTVTKKKKVDGKWSNEDVDLLHDITGYAPKGCITAVMGPSGAGKSTLLDGLAGRIASGSLKGKVSLDGNSVNASLIKRTSAYIMQEDRLFPMLTVYETLMFAADFRLGPLSAVDKRQRVEKLIEQLGLSSSRNTYIGDEGTRGVSGGERRRVSIGVDIIHGPSLLFLDEPTSGLDSTSALSVIEKLHDIARNGSTVILTIHQPSSRIQLLLDHLIILARGQLMFQGSLKDVGHHLNRMGRKIPKGENPIENLIDVIQEYDQCDFVGVEVLAEFARTGMKPPLLSDMEEIISYTNSIAPSPSPLHRGSKYEEKSQDFSYSSQISRRSLNDEFDHSIRSPYNNTPMSWSASNSAAFLKFTPSRLKNENKVQKPPSHASPGIYTYSSEILPATPTPHSSDYVVDENDYLTPTNSSQEHLGPKFANSYIGETWILMRRNFTNIRRTPELFLSRLMVLTFMGVMMATMFHNPKNTLQGITNRLSFFIFTVCLFFFSSNDAVPAFIQERFIFIRETSHNAYRASCYTIASLITHMPFLALQALAYAAIVWFALELRGPFIYFFLVLFISLLSTNSFVVFVSSIVPNYILGYAAVIAFTALFFLFCGYFLSSEDIPLYWRWMNKVSTMTYPYEGLLMNEYQTNETFGSNDGVSITGFDILKSLHIGTEEIKKRNNVLIMLGWAVLYRILFYIILRFASKNQRS | binds | no binding |
| STR (stunted arbuscule, half-size ABCG transporter) (protein, UniProt D3GE74 1-817) MARLERDGTNKSLESLMDSHKPGGTTTNLNQLRTQKSIPGYGLEFTNLSYSIIKKQKKDGVWINKETYLLHDISGQAIKGEIMAIMGPSGAGKSTFLDALAGRIAKGSLQGSVRIDGKPVTTSYMKMVSSYVMQDDQLFPMLTVFETFMFAAEVRLPPSISRDEKKKRVHELLNKLGLQSATHTYIGDEGRRGVSGGERRRVSIGIEIIHKPSLLFLDEPTSGLDSTSAYSVVEKIKDIAQGGSIVLMTIHQPSFRIQMLLDKITILARGRLIYMGRPDALHTHLSGFGRPVPDGENNIEYLLDVITEYDQATVGLDPLVQYQHDGHKPDPAAMTPVPKPPRTPYRRNTPASKHMISLRSQGFTAGTPQPDSSQFGLDDDDNDDDENFDNSLERRSVQTSRNIVTSGVYPRLASQFYQDFSAKDFSVWLYNGVVGTPRRPPSWTPARTPGWTPGKTPLSGPRSFVSNQHSASYQDPYYIQKTNTVVGQSMDYSATSYAPSYEEFEIEEVLDEPDLGPKYANPWLREVAVLSWRTVLNVIRTPELFASREIVLTVMALVLSTIFKNLGDTTFIDINRLLNFYIFAVCLVFFSSNDAVPSFIMERFIFIRETSHNAYRASSYVISSLIVYLPFFAVQGLTFAVITKLMLHLKSNLFNFWMILFASLITTNAYVMLVSALVPSYITGYAVVIATTALFFLTCGFFLKRTQIPAYWKWLHYISAIKYPFEGLLINEFKNNRGCYSGNKADLSPGPLGDVKPSKHHNASLPLNCLLGEDVLSTMDITMESLWYDILILLAWGVLYRFFFYLVLRFYSKNERK | no binding | – |
